Measurements from PMC10017709, “Structural basis of selective cannabinoid CB2 receptor activation” (Nature Communications, 2023).
Values joined by “and” are separate entries in the source; they are usually repeats but may differ in a detail not shown here. Equal values may be shown once. Further values from the same series stand in other lists.

The chains behind the UniProt entries cited, without tags or fusion partners.
UniProt P34972, whole entry: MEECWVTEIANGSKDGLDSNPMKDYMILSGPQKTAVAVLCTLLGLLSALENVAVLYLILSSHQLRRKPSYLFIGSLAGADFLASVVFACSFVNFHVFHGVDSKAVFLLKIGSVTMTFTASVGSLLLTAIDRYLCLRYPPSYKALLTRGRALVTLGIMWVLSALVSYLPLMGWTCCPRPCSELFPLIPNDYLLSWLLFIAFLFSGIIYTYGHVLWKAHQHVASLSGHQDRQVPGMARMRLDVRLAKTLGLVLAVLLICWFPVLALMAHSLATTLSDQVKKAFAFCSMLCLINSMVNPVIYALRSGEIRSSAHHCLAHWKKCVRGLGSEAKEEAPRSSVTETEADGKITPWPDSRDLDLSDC
UniProt P34972, whole entry S285A: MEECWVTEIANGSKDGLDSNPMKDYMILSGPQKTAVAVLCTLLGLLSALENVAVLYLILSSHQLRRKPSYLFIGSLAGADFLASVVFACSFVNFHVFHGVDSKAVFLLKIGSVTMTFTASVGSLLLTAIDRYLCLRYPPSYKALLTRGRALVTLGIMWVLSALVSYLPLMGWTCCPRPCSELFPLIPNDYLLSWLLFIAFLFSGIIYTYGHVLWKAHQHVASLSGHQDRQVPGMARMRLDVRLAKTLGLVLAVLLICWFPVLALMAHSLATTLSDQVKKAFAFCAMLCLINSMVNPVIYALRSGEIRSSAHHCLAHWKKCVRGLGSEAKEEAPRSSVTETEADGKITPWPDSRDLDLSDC
UniProt P34972, whole entry H95A: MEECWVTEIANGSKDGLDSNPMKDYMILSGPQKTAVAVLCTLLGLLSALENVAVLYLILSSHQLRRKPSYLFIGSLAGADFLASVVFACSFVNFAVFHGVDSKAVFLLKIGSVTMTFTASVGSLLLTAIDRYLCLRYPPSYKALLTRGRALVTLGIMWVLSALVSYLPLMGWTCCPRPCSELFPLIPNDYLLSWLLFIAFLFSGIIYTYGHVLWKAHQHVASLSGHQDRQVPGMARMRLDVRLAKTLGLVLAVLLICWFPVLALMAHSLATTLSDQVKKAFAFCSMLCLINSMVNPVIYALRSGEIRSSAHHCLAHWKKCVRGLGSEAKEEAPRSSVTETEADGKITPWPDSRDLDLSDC

What was measured:
Format in all cases: biochemical
CB2R WT = CB2R WT (Homo sapiens, UniProt P34972); experiment: [35S]GTPγS G protein activation assay, CB2R WT
CB2R-S285^7.39A = CB2R-S285^7.39A (Homo sapiens, UniProt P34972, S285A); experiment: [35S]GTPγS assay, CB2R S285A mutant; details: S2857.39A, individual replicates
CB2R-H95^2.65A = CB2R-H95^2.65A (Homo sapiens, UniProt P34972, H95A); experiment: [35S]GTPγS assay, CB2R H95A mutant; details: H952.65A, individual replicates
[1] = log [ligand] (M) -5, individual replicates
[2] = log [ligand] (M) -6, individual replicates
[3] = log [ligand] (M) -7, individual replicates
[4] = log [ligand] (M) -8, individual replicates
[5] = log [ligand] (M) -9, individual replicates
[6] = log [ligand] (M) -10, individual replicates

SMILES | [35S]GTPγS binding (CB2R WT; [1]) | [35S]GTPγS binding (CB2R WT; [2]) | [35S]GTPγS binding (CB2R WT; [3]) | [35S]GTPγS binding (CB2R WT; [4]) | [35S]GTPγS binding (CB2R WT; [5]) | [35S]GTPγS binding (CB2R WT; [6]) | [35S]GTPγS binding (CB2R-S285^7.39A; log [ligand] (M) -5) | [35S]GTPγS binding (CB2R-S285^7.39A; log [ligand] (M) -6) | [35S]GTPγS binding (CB2R-S285^7.39A; log [ligand] (M) -7) | [35S]GTPγS binding (CB2R-S285^7.39A; log [ligand] (M) -8) | [35S]GTPγS binding (CB2R-S285^7.39A; log [ligand] (M) -9) | [35S]GTPγS binding (CB2R-S285^7.39A; log [ligand] (M) -10) | [35S]GTPγS binding (CB2R-H95^2.65A; log [ligand] (M) -5) | [35S]GTPγS binding (CB2R-H95^2.65A; log [ligand] (M) -6) | [35S]GTPγS binding (CB2R-H95^2.65A; log [ligand] (M) -7) | [35S]GTPγS binding (CB2R-H95^2.65A; log [ligand] (M) -8) | [35S]GTPγS binding (CB2R-H95^2.65A; log [ligand] (M) -9) | [35S]GTPγS binding (CB2R-H95^2.65A; log [ligand] (M) -10)
CC(C)(C)[C@@H](CO)NC(=O)c1nn(-c2c[n+]([O-])ccn2)c2c1C[C@@H]1C[C@H]21 [APD371] | 112.85 percentage of WT and 96.11 percentage of WT and 105.97 percentage of WT and 104.55 percentage of WT and 108.60 percentage of WT and 118.20 percentage of WT and 121.51 percentage of WT and 97.04 percentage of WT and 112.64 percentage of WT and 109.39 percentage of WT | 101.65 percentage of WT and 108.05 percentage of WT and 103.76 percentage of WT and 85.64 percentage of WT and 90.30 percentage of WT and 90.60 percentage of WT and 85.69 percentage of WT and 110.33 percentage of WT and 98.28 percentage of WT and 90.42 percentage of WT | 65.22 percentage of WT and 83.81 percentage of WT and 71.51 percentage of WT and 50.32 percentage of WT and 60.90 percentage of WT and 88.20 percentage of WT and 84.57 percentage of WT and 83.61 percentage of WT and 70.16 percentage of WT and 80.76 percentage of WT | 50.98 percentage of WT and 55.36 percentage of WT and 52.62 percentage of WT and 28.70 percentage of WT and 27.80 percentage of WT and 75.70 percentage of WT and 65.42 percentage of WT and 58.27 percentage of WT and 49.03 percentage of WT and 40.50 percentage of WT | -12.56 percentage of WT and -13.21 percentage of WT and 19.42 percentage of WT and -3.17 percentage of WT and -11.40 percentage of WT and 29.40 percentage of WT and 20.93 percentage of WT and 28.40 percentage of WT and 21.84 percentage of WT and 14.36 percentage of WT | -15.70 percentage of WT and -30.32 percentage of WT and 18.97 percentage of WT and 10.28 percentage of WT and -13.90 percentage of WT and 6.00 percentage of WT and 15.58 percentage of WT and 18.42 percentage of WT and -0.62 percentage of WT and 14.36 percentage of WT | 45.61 percentage of WT and 60.50 percentage of WT and 40.60 percentage of WT | 40.03 percentage of WT and 54.20 percentage of WT and 21.00 percentage of WT | 21.02 percentage of WT and 18.80 percentage of WT and 5.80 percentage of WT | -0.69 percentage of WT and -5.50 percentage of WT and -1.50 percentage of WT | 2.38 percentage of WT and 4.40 percentage of WT and -1.70 percentage of WT | -4.26 percentage of WT and -10.70 percentage of WT and -3.40 percentage of WT | 52.03 percentage of WT and 47.30 percentage of WT and 50.30 percentage of WT | 26.16 percentage of WT and 2.30 percentage of WT and 33.20 percentage of WT | 21.06 percentage of WT and -6.80 percentage of WT and 5.10 percentage of WT | 8.77 percentage of WT and -23.50 percentage of WT and 12.90 percentage of WT | 11.56 percentage of WT and -13.30 percentage of WT and 10.80 percentage of WT | 12.25 percentage of WT and -25.60 percentage of WT and 11.00 percentage of WT
CCCCCCC(C)(C)c1cc(OC)c([C@@H]2C=C(CO)[C@@H]3C[C@H]2C3(C)C)c(OC)c1 [HU308] | 96.97 percentage of WT and 103.73 percentage of WT and 107.70 percentage of WT and 98.66 percentage of WT and 128.60 percentage of WT and 99.50 percentage of WT and 113.08 percentage of WT and 99.28 percentage of WT and 98.69 percentage of WT and 100.80 percentage of WT | 95.84 percentage of WT and 64.21 percentage of WT and 97.52 percentage of WT and 59.42 percentage of WT and 65.00 percentage of WT and 85.80 percentage of WT and 76.92 percentage of WT and 100.47 percentage of WT and 94.26 percentage of WT and 88.94 percentage of WT | 66.45 percentage of WT and 33.08 percentage of WT and 87.57 percentage of WT and 28.56 percentage of WT and 90.60 percentage of WT and 37.80 percentage of WT and 49.46 percentage of WT and 57.48 percentage of WT and 59.67 percentage of WT and 47.80 percentage of WT | 9.42 percentage of WT and 30.54 percentage of WT and 55.90 percentage of WT and 9.76 percentage of WT and 40.10 percentage of WT and 6.20 percentage of WT and 20.26 percentage of WT and 34.41 percentage of WT and 17.62 percentage of WT and 23.72 percentage of WT | -2.14 percentage of WT and -19.02 percentage of WT and 16.94 percentage of WT and -14.29 percentage of WT and -15.70 percentage of WT and -6.90 percentage of WT and -22.82 percentage of WT and -1.37 percentage of WT and 14.28 percentage of WT and 7.88 percentage of WT | 12.69 percentage of WT and 0.12 percentage of WT and -18.99 percentage of WT and 12.94 percentage of WT and 1.90 percentage of WT and -10.30 percentage of WT and -18.00 percentage of WT and 0.09 percentage of WT and 9.81 percentage of WT and 3.21 percentage of WT | 57.49 percentage of WT and 99.30 percentage of WT and 37.20 percentage of WT | 24.02 percentage of WT and 49.70 percentage of WT and 10.20 percentage of WT | 4.80 percentage of WT and 21.40 percentage of WT and 7.30 percentage of WT | 9.70 percentage of WT and 18.40 percentage of WT and -21.50 percentage of WT | -6.66 percentage of WT and 7.70 percentage of WT and -20.10 percentage of WT | -1.09 percentage of WT and -1.80 percentage of WT and -13.50 percentage of WT | 39.67 percentage of WT and 95.40 percentage of WT and 66.90 percentage of WT | 25.43 percentage of WT and 64.30 percentage of WT and 39.60 percentage of WT | 16.36 percentage of WT and 18.60 percentage of WT and 22.20 percentage of WT | 20.18 percentage of WT and 16.90 percentage of WT and 8.00 percentage of WT | -0.48 percentage of WT and 5.30 percentage of WT and 13.20 percentage of WT | 11.53 percentage of WT and 13.50 percentage of WT and 28.40 percentage of WT
CC(C)CN1C(=O)CN(Cc2ccc(-c3ccc(F)c(CNC4CCOCC4)n3)cc2)C1=O [LEI-102, 1-(4-(5-fluoro-6-(((tetrahydro-2H-pyran-4-yl)amino)methyl)pyridin-2-yl)benzyl)-3-isobutylimidazolidine-2,4-dione] | 82.84 percentage of WT and 105.72 percentage of WT and 105.18 percentage of WT and 93.74 percentage of WT and 96.80 percentage of WT and 97.90 percentage of WT and 114.64 percentage of WT and 111.07 percentage of WT and 117.28 percentage of WT and 102.43 percentage of WT | 114.91 percentage of WT and 83.97 percentage of WT and 63.14 percentage of WT and 57.64 percentage of WT and 73.00 percentage of WT and 72.80 percentage of WT and 84.18 percentage of WT and 76.76 percentage of WT and 76.66 percentage of WT and 89.94 percentage of WT | 51.21 percentage of WT and 69.14 percentage of WT and 40.40 percentage of WT and 9.86 percentage of WT and 25.50 percentage of WT and 17.20 percentage of WT and 73.59 percentage of WT and 49.19 percentage of WT and 85.43 percentage of WT and 66.41 percentage of WT | 29.05 percentage of WT and -0.75 percentage of WT and 6.78 percentage of WT and 8.81 percentage of WT and 13.30 percentage of WT and 9.90 percentage of WT and 32.54 percentage of WT and 34.61 percentage of WT and 37.02 percentage of WT and 0.45 percentage of WT | -3.55 percentage of WT and 7.29 percentage of WT and 0.91 percentage of WT and -15.68 percentage of WT and -11.00 percentage of WT and -14.10 percentage of WT and -2.35 percentage of WT and -0.95 percentage of WT and 21.78 percentage of WT and -35.12 percentage of WT | 32.17 percentage of WT and -8.80 percentage of WT and 5.80 percentage of WT and -5.61 percentage of WT and 24.70 percentage of WT and -24.60 percentage of WT and 0.52 percentage of WT and 0.75 percentage of WT and 35.26 percentage of WT and -26.23 percentage of WT | 58.41 percentage of WT and 46.90 percentage of WT and 30.50 percentage of WT | 32.73 percentage of WT and 21.70 percentage of WT and 7.90 percentage of WT | 27.58 percentage of WT and -13.70 percentage of WT and -12.80 percentage of WT | 9.47 percentage of WT and -18.20 percentage of WT and -26.20 percentage of WT | 0.11 percentage of WT and -19.50 percentage of WT and -21.70 percentage of WT | 7.40 percentage of WT and -15.80 percentage of WT and -17.70 percentage of WT | 62.55 percentage of WT and 75.60 percentage of WT and 53.20 percentage of WT | 29.15 percentage of WT and -6.90 percentage of WT and 42.60 percentage of WT | 28.77 percentage of WT and -14.00 percentage of WT and 28.10 percentage of WT | 22.35 percentage of WT and -8.30 percentage of WT and -9.70 percentage of WT | 20.38 percentage of WT and -3.00 percentage of WT and 16.20 percentage of WT | 32.52 percentage of WT and 2.50 percentage of WT and 16.10 percentage of WT
